Laboratory results taken from US20010016352, “NUCLEIC ACID SEQUENCES CONTROLLING LUNG CELL-SPECIFIC GENE EXPRESSION” (published 2001).
For some assays here: Where cells or extracts were used, other partners may take part. For some assays here: Negatives hold for the conditions tested. For some assays here: Tags and fusion partners may be left off the protein sequences shown. For some assays here: The exact form of at least one protein or probe is not confirmed.

Assays:
HNF-3beta (Mus musculus) [1] = target: T1, HNF-3beta (Mus musculus) (UniProt P35583); experiment: competition with a labelled probe; conditions: 1000-fold excess competes complex D; protein in an extract; protein details: endogenous, MLE-15 nuclear extract
T1 sequence (looked up, limits assumed): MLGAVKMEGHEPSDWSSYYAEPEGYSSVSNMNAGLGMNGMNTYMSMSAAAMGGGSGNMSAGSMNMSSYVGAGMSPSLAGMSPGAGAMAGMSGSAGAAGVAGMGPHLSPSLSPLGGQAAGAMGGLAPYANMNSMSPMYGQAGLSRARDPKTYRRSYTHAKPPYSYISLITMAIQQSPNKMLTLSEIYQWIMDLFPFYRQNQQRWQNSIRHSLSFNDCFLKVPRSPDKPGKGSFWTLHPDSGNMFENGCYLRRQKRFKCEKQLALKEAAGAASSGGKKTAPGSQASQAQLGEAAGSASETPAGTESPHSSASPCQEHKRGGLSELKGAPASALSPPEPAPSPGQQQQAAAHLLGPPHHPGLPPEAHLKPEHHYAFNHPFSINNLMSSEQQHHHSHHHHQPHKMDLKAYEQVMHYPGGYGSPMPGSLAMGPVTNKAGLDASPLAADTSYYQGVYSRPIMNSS

[2] = target: T2, HNF-3alpha (Mus musculus) (UniProt P35582); experiment: competition with a labelled probe; conditions: 1000-fold excess competes complex C; protein in an extract; protein details: endogenous, MLE-15 nuclear extract
T2 sequence (looked up, limits assumed): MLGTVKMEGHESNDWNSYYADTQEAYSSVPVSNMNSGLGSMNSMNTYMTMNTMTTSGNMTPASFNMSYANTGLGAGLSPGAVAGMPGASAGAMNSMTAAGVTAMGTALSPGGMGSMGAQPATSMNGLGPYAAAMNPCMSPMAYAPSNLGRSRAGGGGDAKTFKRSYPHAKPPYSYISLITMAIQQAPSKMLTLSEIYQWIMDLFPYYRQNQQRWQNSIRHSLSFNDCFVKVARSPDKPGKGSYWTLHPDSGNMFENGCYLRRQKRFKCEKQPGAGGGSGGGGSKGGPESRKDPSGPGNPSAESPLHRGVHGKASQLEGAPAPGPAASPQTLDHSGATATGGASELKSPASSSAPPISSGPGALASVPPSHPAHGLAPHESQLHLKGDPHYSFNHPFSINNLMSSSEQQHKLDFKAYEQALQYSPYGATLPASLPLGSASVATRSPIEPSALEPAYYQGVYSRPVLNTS

HNF-3beta (Mus musculus) [3] = target: T1, HNF-3beta (Mus musculus); experiment: EMSA; conditions: protein in an extract, protein details: endogenous, MLE-15 nuclear extract, label: 32P
TTF-1 (Homo sapiens) = TTF-1 (Homo sapiens) (UniProt P43699); experiment: EMSA; conditions: anti-TTF-1 supershift, data not shown; protein in an extract; protein details: endogenous, H441 nuclear extract; label: 32P
TTF-1 (Mus musculus) = TTF-1 (Mus musculus) (UniProt P50220); experiment: EMSA; conditions: protein in an extract, protein details: endogenous, MLE-15 nuclear extract
[4] = target: T2, HNF-3alpha (Mus musculus); experiment: EMSA; conditions: protein in an extract, protein details: endogenous, MLE-15 nuclear extract, label: 32P
[5] = target: T3, TTF-1 homeodomain (TTF-1 HD) (Rattus norvegicus) (UniProt P23441); experiment: EMSA; conditions: purified recombinant protein, protein details: bacterially expressed homeodomain fragment, label: 32P
T3 sequence (looked up, limits assumed): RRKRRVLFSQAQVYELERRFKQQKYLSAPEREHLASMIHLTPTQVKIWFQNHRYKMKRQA

[6] = target: T4, HNF-3gamma (Mus musculus) (UniProt P35584); experiment: EMSA; conditions: antibody had no effect; not expressed in lung; protein in an extract; protein details: MLE-15 nuclear extract; label: 32P
T4 sequence (looked up, limits assumed): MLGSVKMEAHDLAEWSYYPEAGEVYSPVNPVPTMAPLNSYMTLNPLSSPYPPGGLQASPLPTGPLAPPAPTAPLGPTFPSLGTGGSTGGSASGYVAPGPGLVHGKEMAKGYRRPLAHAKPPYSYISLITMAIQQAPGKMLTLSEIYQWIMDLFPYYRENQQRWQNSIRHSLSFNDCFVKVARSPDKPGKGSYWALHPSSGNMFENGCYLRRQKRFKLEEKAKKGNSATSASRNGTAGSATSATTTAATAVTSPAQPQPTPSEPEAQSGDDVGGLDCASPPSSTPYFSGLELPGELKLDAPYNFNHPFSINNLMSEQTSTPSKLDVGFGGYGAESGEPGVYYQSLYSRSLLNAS

[7] = target: T5, HNF-3alpha (Homo sapiens) (UniProt P55317); experiment: EMSA; conditions: H441 formed only complex C; protein in an extract; protein details: endogenous, H441 nuclear extract; label: 32P
T5 sequence (looked up, limits assumed): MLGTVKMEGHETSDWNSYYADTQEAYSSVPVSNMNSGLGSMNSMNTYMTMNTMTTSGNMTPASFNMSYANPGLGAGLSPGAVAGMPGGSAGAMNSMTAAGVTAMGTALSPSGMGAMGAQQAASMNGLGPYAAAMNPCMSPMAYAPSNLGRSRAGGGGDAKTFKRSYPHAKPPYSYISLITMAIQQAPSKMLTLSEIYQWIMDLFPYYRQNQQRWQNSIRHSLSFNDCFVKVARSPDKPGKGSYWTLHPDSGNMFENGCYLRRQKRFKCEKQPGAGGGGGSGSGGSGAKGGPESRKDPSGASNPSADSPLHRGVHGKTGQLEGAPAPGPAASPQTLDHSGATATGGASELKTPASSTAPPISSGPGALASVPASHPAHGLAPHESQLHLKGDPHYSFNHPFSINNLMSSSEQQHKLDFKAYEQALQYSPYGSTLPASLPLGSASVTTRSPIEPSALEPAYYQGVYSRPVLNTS

[8] = variant of hSP-B -439/-331 enhancer
[9] = single complex as probe, 100-fold excess competes slightly less than f1, variant of SPB-f1
[10] = one band, variant of SP-A probe A

ACGCAGGACTTGTTTGTTCTAG (double strand) [TGT3]
binding result (HNF-3beta (Mus musculus) [1]): binds | binding result [2]: binds

AGCACCTGGAGGGCTCTTCAGAGC (double strand) [SPB-f1]
binding result (HNF-3beta (Mus musculus) [3]; anti-HNF-3beta did not affect SPB-f1 complexes): no binding | binding result (TTF-1 (Homo sapiens)): binds | binding result (TTF-1 (Mus musculus); anti-TTF-1 supershift, complexes A and B, label: 32P): binds | binding result ([4]; anti-HNF-3alpha did not affect SPB-f1 complexes): no binding

AGCATTGCTATCCAGTAGAGGGGGCCTGGG (double strand) [Bc mutant (Bcm)]
binding result ([5]; variant of Bc wild type): no binding

AGCATTGCTCAAGAGTAGAGGGGGCCTGGG (double strand) [Bc wild type]
binding result [5, 8]: binds

ATCAAGCACCTGGAGGGC (double strand) [5'f1]
binding result (TTF-1 (Mus musculus); [9]): binds

CACTGCCCAGTCAAGTGTTCTTGA (double strand) [oligo C]
binding result (TTF-1 (Mus musculus)): binds

CGACCTCAGTGTTTGTCTTTGC (double strand) [SPB-f2]
binding result (HNF-3beta (Mus musculus) [3]; complex D, antibody interference): binds | binding result [6]: no binding | binding result [7]: binds | binding result (TTF-1 (Mus musculus); label: 32P): no binding | binding result ([4]; complex C, antibody interference): binds

GCCACCCTCAAGGTTCTAAGTGCTCTTCTTGTTAAGTGCTCTGAAGGAAC (double strand) [SP-A probe A]
binding result ([5]; four bands): binds

GCCAGGCAGGAAGCTCTCAAGAGCATTG (double strand) [Bb wild type]
binding result [5, 8]: binds

GCCAGGTAGGAAGCTCTATCCAGCATTG (double strand) [Bb mutant (Bbm)]
binding result ([5]; variant of Bb wild type): no binding

GGGCTCTTCAGAGCAAAG (double strand) [3'f1]
binding result (TTF-1 (Mus musculus); [9]): binds

GTGCCACCCTCAAGGTTCTAAGTG (double strand) [SP-A probe C]
binding result (TTF-1 (Mus musculus); 18 h exposure, label: 32P, variant of SP-A probe A): binds | binding result [5, 10]: binds

GTTAAGTGCTCTGAAGGAACCTG (double strand) [SP-A probe D]
binding result (TTF-1 (Mus musculus); strong, 30 min exposure, label: 32P, variant of SP-A probe A): binds | binding result [5, 10]: binds

TAGGGGGATCCCTGGGTTAAGAGCTAGGCA (double strand) [Ba mutant (Bam)]
binding result ([5]; variant of Ba wild type): no binding

TCTAAGTGCTCTTC (double strand) [SP-A probe E]
binding result (TTF-1 (Mus musculus); lowest affinity site 2, 24 h exposure, label: 32P, variant of SP-A probe A): binds

TCTAAGTGCTCTTCTTGTTAAGTGCTCTGA (double strand) [SP-A probe B]
binding result (TTF-1 (Mus musculus); anti-TTF-1 supershift assay, label: 32P, variant of SP-A probe A): binds | binding result ([5]; two bands, variant of SP-A probe A): binds

TCTGATTATTGACTTAGTCAAGCG (double strand) [TTR-S]
binding result (HNF-3beta (Mus musculus) [1]): binds | binding result [2]: binds
